Data taken from paper doi:10.1101/310227.

B1: Isopeptide-N blocker (FimA CnaA domain β-strandI1 mimic), Halo-tagged (peptide)
chain: MEFARNGAITNRAQVISDHGVRSEDLYFQSDNTTPE
B2: Isopeptide-K blocker (FimA CnaB domain β-strandA mimic), Halo-tagged (peptide)
chain: MEFWGDLLIKKVDNHQQGHGVRSEDLYFQSDNTTPE

Biological target: FimA, shaft pilin of Actynomyces oris (Actynomyces oris)

Binder	binding
B1	binds
B2	binds

Results are given in words; binding and its absence hold for the method and conditions named. In cells and extracts the contact can be indirect. Binding calls can cover weak binding; strength is not graded here. Where a sequence is shown, tags or fusion partners need not be part of it.
